# These are yes or no findings as the source states them, for the method shown. Binding seen in cells or lysates may run through a third protein. Some results given as binding are weak or reduced against the parent protein; the word gives no strength. Sequences can lack the tags named with a protein.
# By UniProt entry, the sequences of proteins in these tests, tags left out.
# UniProt Q8CFN5: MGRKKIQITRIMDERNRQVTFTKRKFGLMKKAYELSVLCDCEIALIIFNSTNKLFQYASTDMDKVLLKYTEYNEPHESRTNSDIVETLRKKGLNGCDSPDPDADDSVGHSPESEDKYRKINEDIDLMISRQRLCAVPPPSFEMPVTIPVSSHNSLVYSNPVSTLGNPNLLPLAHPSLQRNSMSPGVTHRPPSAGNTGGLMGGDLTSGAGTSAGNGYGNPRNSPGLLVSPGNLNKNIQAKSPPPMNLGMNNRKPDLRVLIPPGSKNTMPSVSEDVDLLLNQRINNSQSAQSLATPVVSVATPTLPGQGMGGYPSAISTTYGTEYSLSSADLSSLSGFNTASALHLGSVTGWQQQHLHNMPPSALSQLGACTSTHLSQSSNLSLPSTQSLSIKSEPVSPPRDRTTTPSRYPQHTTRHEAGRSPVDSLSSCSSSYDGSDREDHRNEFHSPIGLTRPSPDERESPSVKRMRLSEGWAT
# Target: T1, GST-hMusTRD1α1944aa (human) (UniProt Q9UHL9)
# T1 sequence: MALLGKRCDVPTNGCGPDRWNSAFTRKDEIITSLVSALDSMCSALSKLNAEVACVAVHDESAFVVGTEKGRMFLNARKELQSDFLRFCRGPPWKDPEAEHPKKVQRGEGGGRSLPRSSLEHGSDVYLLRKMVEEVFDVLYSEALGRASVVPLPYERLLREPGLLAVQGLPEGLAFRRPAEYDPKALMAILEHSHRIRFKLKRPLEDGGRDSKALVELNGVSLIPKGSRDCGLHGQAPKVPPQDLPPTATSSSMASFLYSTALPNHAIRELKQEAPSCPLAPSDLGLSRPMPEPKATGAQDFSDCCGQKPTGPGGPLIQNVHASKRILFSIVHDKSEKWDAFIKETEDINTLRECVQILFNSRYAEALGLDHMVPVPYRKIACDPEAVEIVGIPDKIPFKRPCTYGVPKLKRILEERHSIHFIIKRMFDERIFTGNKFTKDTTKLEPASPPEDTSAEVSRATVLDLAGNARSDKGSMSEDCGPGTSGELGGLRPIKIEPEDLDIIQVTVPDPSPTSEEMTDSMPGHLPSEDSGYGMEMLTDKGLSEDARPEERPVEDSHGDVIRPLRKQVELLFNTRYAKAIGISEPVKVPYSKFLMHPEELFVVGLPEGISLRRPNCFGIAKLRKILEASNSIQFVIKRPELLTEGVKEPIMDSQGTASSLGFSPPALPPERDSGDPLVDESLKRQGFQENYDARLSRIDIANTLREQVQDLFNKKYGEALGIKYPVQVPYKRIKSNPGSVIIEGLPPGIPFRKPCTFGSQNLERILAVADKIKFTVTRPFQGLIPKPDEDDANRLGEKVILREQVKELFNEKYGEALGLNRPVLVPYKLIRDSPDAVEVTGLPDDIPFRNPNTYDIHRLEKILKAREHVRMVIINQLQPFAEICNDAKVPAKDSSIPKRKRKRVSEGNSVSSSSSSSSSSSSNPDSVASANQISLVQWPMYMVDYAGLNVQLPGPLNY
# Test: GST pull-down, phosphorimaging (data not shown)
substance,measurement,value
"MEF2C (pcDNAMEF2C, mouse MEF2C cDNA) (from UniProt Q8CFN5 1-474)",binding,binds
